# Data as given in PubChem BioAssay AID504774 (Drosophila RNAi Screening Center, 2011)
# Assay: 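Fly genes whose loss alters survival after alkylation damage to DNA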 (primary screen)
# Cells: Drosophila Kc167 cells
# Reagents: long dsRNA against Drosophila genes, about 0.25 µg dsRNA per well
# Timing: about 6 days: 3 days knock-down, then 3 days with or without MMS
# Treatment: methyl methanesulphonate 0.004% (w/v) for 3 days after knock-down
# Measurement: 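Viability in wells given MMS, read as ATP luminescence, normalised by quantiles plate by plate and averaged across replicates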
# Reading the numbers: mean viability with MMS and viability with MMS: higher = more surviving cells after MMS
# The screen tested about 23,000 reagents; this is a random part of those that have a named target and a result. 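Values are quantile-normalised luminescence on an arbitrary scale; higher means more cells surviving MMS.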 Names joined by + are all predicted targets of the reagent. Reagent sequences are not shown.
gene knocked down,amplicon,mean viability with MMS,"viability with MMS, replicate 1","viability with MMS, replicate 2"
CG12828,DRSC06177,3.62e6,4.07e6,4.08e6
pgc,DRSC04099,3.39e6,3.73e6,3.91e6
CG6340,DRSC19987,3.56e6,4.10e6,3.98e6
Nedd8,DRSC02092,3.43e6,3.84e6,3.90e6
Mal-A5,DRSC07232,3.58e6,4.06e6,4.06e6
CG8519,DRSC10985,3.61e6,4.27e6,3.94e6
CG34458,DRSC06925,3.58e6,4.12e6,3.99e6
CG14219,DRSC19576,3.51e6,3.98e6,3.99e6
CG14223,DRSC19580,3.47e6,4.03e6,3.86e6
CG31473,DRSC15443,3.66e6,4.13e6,4.16e6
CG10265,DRSC05986,3.19e6,3.66e6,3.69e6
CG10265,DRSC21680,3.61e6,4.09e6,4.09e6
Srp54k,DRSC11289,3.64e6,4.24e6,4.04e6
qsm,DRSC05896,3.55e6,3.97e6,4.08e6
qsm,DRSC06393,3.51e6,3.86e6,4.10e6
CG2006,DRSC15412,3.61e6,4.00e6,4.18e6
px,DRSC04708,2.79e6,3.42e6,2.60e6
px,DRSC23244,2.74e6,2.42e6,3.60e6
Cerk,DRSC12285,3.54e6,4.00e6,4.04e6
Hip1,DRSC09812,3.56e6,4.16e6,3.91e6
beat-Ic,DRSC01524,3.65e6,4.25e6,3.97e6
beat-Ic,DRSC03491,3.40e6,3.84e6,3.86e6
ZIPIC,DRSC16349,3.50e6,4.01e6,3.94e6
CG6865,DRSC10732,3.33e6,3.69e6,3.79e6
CG5280,DRSC10498,3.48e6,3.92e6,3.98e6
CG5280,DRSC22835,3.45e6,3.89e6,3.99e6

Entries above whose target name begins with Q or q:
gene knocked down,amplicon,mean viability with MMS,"viability with MMS, replicate 1","viability with MMS, replicate 2"
qsm,DRSC05896,3.55e6,3.97e6,4.08e6
qsm,DRSC06393,3.51e6,3.86e6,4.10e6

Additional reagents follow:
gene knocked down,amplicon,mean viability with MMS,"viability with MMS, replicate 1","viability with MMS, replicate 2"
Dp,DRSC07402,3.24e6,3.75e6,3.66e6
GABA-B-R2,DRSC14134,3.69e6,4.14e6,4.17e6
CG15142,DRSC02443,3.43e6,3.85e6,3.95e6
CG15021,DRSC08475,3.52e6,3.96e6,3.89e6
fmt,DRSC09717,3.46e6,3.92e6,3.92e6
CG8569,DRSC07214,3.64e6,4.15e6,4.12e6
serp,DRSC11035,3.61e6,4.13e6,4.06e6
serp,DRSC11036,3.65e6,4.21e6,4.03e6
CG5171,DRSC02823,3.58e6,4.02e6,4.12e6
Gyf,DRSC17202,3.50e6,4.02e6,3.92e6
GluRIA,DRSC11176,3.67e6,4.22e6,4.11e6
p23,DRSC15158,3.55e6,3.97e6,4.08e6
Ate1,DRSC05925,3.71e6,4.11e6,4.30e6
Ntf-2r,DRSC02019,3.33e6,3.66e6,3.83e6
CG17032,DRSC10241,3.65e6,4.05e6,4.19e6
phtm,DRSC20237,3.45e6,3.97e6,3.85e6
akirin,DRSC11000,3.18e6,3.68e6,3.66e6
MED23 + CG3700,DRSC04406,3.48e6,3.89e6,3.98e6
MED23 + CG3700,DRSC04407,3.58e6,3.99e6,4.15e6
CG1463,DRSC19603,3.55e6,4.02e6,3.82e6
